Measured values published in the supplement of paper PMC6411743.
± gives the standard deviation of the averaged measurements. The entries are a selection whose mix differs from that of the whole data set.

The chains behind the UniProt entries cited, without tags or fusion partners. Where a name states a change or a piece, a line headed by the entry shows the natural chain unless it says otherwise.
UniProt P07108: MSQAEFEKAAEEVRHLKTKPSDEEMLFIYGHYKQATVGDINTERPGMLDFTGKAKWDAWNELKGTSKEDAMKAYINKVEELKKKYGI
UniProt P10515, whole entry: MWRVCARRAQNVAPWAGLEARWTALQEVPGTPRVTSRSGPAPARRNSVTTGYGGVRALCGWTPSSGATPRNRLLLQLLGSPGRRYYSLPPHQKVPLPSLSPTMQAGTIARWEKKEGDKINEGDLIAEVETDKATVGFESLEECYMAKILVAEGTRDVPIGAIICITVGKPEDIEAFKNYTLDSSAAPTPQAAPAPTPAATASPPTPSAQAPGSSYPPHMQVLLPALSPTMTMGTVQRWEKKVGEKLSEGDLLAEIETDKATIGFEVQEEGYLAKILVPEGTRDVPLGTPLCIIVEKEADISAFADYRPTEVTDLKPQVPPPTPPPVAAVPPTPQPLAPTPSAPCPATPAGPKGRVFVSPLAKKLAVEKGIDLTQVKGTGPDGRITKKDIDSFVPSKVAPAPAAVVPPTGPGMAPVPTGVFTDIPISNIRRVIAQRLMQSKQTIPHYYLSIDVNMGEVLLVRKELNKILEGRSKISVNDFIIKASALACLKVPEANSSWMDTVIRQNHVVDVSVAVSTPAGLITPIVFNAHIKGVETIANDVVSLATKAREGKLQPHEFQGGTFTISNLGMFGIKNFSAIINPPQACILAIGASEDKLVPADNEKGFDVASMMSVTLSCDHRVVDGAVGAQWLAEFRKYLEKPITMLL
UniProt P05455: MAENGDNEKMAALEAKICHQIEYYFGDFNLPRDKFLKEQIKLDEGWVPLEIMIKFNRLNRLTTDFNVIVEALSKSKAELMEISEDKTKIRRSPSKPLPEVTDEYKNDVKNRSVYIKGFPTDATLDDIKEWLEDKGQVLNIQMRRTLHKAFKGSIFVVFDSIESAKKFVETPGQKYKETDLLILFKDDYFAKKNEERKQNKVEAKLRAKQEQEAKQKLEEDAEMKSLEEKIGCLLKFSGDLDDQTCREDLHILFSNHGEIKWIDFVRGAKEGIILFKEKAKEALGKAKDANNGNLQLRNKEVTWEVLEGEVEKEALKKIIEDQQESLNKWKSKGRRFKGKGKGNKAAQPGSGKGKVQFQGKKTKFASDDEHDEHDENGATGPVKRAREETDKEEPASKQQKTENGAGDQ
UniProt P06400: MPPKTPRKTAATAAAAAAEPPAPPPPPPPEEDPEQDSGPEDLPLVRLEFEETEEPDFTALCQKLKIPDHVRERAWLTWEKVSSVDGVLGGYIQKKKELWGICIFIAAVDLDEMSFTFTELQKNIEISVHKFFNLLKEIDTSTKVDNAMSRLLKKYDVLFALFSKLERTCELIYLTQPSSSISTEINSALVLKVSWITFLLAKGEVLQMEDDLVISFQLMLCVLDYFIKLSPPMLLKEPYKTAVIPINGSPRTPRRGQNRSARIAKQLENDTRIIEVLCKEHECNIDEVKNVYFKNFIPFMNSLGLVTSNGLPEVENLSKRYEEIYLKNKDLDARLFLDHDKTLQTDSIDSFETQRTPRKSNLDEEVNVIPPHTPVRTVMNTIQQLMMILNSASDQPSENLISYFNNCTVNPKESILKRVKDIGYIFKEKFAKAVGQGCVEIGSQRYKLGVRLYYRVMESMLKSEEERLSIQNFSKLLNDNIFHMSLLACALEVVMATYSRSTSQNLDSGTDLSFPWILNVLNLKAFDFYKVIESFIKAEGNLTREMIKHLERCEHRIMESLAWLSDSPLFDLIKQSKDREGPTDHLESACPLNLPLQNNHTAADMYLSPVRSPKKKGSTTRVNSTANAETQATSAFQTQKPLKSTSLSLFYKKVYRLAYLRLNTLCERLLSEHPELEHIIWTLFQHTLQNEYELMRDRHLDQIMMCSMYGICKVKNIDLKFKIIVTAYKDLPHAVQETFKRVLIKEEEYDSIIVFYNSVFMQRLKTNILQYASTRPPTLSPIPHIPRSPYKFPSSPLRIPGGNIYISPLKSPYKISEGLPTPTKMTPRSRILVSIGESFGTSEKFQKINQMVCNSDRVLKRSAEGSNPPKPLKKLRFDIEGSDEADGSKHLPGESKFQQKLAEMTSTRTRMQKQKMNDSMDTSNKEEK
UniProt P16403, whole entry: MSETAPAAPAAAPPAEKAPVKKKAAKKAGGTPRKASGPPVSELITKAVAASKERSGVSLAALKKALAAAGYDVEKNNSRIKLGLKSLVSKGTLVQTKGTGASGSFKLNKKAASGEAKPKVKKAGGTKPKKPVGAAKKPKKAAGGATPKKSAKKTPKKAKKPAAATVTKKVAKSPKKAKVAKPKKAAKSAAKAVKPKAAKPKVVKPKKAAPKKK
UniProt P10244: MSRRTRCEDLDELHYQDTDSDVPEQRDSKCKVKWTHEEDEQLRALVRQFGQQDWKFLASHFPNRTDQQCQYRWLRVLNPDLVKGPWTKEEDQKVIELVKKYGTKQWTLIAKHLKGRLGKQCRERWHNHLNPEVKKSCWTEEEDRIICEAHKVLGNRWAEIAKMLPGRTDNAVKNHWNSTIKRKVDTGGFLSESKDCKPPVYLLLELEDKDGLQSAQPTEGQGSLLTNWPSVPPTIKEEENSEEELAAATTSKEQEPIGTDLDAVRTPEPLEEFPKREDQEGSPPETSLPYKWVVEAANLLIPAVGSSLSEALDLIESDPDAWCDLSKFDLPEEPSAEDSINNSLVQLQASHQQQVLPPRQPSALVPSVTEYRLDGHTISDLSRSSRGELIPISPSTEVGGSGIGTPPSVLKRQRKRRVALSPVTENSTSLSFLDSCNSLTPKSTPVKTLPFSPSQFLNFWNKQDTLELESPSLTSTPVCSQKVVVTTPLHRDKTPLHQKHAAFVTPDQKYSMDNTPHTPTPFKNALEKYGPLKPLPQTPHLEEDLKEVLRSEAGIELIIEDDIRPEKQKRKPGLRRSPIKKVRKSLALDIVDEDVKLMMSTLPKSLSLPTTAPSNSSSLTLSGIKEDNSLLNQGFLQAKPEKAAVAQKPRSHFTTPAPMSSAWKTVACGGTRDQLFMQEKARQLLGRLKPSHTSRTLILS
UniProt P11182, whole entry: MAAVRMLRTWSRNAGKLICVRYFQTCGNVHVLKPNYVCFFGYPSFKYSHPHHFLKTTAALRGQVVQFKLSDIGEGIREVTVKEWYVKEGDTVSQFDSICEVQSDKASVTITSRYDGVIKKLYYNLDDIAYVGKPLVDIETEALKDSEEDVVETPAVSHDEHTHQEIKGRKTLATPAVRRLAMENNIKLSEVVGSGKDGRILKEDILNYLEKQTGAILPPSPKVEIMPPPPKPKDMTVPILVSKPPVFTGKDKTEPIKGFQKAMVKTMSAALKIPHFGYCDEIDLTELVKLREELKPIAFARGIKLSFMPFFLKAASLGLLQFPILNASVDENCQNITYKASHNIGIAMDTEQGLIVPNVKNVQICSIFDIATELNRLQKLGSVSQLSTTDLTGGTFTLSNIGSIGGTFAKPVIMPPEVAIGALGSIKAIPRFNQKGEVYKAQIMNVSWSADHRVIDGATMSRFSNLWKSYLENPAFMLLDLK
UniProt P09972: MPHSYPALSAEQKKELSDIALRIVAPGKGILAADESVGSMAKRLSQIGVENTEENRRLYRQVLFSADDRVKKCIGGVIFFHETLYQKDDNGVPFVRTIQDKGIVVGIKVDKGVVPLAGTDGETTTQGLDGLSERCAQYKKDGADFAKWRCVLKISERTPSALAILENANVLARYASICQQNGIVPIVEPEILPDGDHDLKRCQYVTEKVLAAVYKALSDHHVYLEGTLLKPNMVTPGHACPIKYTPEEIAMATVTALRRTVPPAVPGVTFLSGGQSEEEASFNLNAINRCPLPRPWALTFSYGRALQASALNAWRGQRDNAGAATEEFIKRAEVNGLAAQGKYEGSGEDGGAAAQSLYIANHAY
UniProt O95817, whole entry: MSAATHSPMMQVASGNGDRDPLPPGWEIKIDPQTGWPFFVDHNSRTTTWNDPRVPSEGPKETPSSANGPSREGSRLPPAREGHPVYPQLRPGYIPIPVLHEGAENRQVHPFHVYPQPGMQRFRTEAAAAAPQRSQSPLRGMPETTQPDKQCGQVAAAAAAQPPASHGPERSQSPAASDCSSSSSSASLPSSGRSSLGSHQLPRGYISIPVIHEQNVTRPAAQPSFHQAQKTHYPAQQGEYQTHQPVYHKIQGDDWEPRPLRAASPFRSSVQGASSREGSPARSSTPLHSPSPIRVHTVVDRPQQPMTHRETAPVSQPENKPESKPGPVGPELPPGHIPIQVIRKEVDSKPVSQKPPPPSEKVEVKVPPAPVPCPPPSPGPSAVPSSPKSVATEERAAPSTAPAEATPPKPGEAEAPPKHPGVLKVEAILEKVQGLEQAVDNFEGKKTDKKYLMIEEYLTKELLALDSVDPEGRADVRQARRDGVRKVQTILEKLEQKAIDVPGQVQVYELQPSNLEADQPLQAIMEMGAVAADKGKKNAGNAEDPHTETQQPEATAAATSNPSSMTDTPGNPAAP
UniProt O95905: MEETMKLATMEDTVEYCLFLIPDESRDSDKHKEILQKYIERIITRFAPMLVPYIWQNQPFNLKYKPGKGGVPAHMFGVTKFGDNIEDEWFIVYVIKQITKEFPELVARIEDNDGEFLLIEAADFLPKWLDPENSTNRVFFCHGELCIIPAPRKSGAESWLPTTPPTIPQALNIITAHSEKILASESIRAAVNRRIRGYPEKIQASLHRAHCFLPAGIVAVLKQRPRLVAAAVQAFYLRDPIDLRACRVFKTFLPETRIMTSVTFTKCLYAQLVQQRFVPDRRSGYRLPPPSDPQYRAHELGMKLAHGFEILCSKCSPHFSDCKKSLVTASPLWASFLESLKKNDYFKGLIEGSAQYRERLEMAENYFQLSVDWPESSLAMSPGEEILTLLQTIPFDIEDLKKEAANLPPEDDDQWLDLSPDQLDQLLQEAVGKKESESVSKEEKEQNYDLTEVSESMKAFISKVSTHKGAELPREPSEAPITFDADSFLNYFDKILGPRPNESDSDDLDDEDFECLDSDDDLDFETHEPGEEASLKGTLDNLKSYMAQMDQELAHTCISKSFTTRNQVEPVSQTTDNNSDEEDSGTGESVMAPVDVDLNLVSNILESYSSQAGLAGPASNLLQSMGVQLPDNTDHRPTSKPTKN
UniProt P13804: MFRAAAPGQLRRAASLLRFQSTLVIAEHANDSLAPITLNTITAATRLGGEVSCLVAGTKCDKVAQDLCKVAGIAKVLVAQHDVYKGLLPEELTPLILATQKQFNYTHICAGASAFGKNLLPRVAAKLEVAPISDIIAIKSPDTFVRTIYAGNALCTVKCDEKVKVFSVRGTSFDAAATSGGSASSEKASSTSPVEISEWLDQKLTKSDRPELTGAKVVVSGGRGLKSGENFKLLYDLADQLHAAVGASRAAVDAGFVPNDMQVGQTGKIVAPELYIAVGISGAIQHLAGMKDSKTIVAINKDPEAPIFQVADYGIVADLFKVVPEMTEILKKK
UniProt P09960: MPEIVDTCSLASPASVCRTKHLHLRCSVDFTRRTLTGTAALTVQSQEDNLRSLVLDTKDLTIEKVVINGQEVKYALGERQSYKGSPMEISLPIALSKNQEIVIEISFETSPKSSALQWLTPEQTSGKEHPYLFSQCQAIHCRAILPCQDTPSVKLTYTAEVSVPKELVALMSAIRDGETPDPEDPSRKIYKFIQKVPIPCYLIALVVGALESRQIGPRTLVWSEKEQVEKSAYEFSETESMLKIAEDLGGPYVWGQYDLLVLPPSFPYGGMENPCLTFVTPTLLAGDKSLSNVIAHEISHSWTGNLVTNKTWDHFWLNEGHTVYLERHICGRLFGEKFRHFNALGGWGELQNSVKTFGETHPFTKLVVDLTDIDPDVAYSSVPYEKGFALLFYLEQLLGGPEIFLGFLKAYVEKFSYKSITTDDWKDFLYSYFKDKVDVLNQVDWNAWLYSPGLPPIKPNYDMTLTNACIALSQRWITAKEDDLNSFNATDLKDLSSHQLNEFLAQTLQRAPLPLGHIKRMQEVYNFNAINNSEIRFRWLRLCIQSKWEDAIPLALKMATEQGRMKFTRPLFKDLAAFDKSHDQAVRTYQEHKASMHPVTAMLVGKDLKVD
UniProt P10768: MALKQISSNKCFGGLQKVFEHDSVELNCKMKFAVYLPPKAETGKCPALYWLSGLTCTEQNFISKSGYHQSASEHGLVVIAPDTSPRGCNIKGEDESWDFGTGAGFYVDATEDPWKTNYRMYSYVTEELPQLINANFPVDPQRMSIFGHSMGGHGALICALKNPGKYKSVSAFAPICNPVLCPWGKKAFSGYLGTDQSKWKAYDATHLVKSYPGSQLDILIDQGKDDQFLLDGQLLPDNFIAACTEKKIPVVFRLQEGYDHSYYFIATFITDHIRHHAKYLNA
UniProt O95881: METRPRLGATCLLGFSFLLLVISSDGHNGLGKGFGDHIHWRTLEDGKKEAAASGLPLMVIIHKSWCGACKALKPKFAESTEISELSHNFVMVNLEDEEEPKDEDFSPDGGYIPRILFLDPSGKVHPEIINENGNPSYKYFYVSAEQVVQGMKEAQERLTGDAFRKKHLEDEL
UniProt P14174: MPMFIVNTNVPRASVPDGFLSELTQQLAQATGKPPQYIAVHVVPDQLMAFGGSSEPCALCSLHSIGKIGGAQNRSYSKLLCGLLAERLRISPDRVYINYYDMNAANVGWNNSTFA

Compound: Nc1ncnc2c1ncn2[C@@H]1O[C@H](COP(=O)(O)OP(=O)(O)NP(=O)(O)O)[C@@H](O)[C@H]1O [adenylyl imidodiphosphate]
Assay: NP40-soluble protein abundance relative to vehicle (solubility fold change) (ratio); higher = more soluble protein in presence of AMP-PNP
In short: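 Jurkat crude lysate (Dounce-homogenised) was treated with eight concentrations from 0.1 to 10 mM for 10 min at room temperature, then 3 min at 37 °C. It was solubilised with 0.8% NP40 and benzonase (60 min, 4 °C) and ultracentrifuged, and the supernatant was TMT-labelled for LC-MS/MS. Intensities were vsn-normalised, and the value is the fold change against the NP40-processed vehicle per replicate, from three independent experiments.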

Target	NP40-soluble protein abundance (concentration: 1mM)	NP40-soluble protein abundance (concentration: 2mM)	NP40-soluble protein abundance (concentration: 4mM)	NP40-soluble protein abundance (concentration: 6mM)	NP40-soluble protein abundance (concentration: 8mM)	NP40-soluble protein abundance (concentration: 10mM)
SNRPA (UniProt P09012)	0.997 ± 0.034	1.03 ± 0.073	0.954 ± 0.067	0.926 ± 0.03	0.909 ± 0.017	0.91 ± 0.051
DBI (UniProt P07108)	1.04 ± 0.064	1.06 ± 0.055	0.987 ± 0.015	0.96 ± 0.041	0.928 ± 0.025	0.997 ± 0.1
DLAT (UniProt P10515)	0.959 ± 0.23	0.904 ± 0.2	0.904 ± 0.31	0.877 ± 0.31	0.899 ± 0.27	0.923 ± 0.31
SSB (UniProt P05455)	1.035 ± 0.0037	1.07 ± 0.088	1.01 ± 0.014	1.04 ± 0.013	1.02 ± 0.031	1.02 ± 0.047
TTC4 (UniProt O95801)	1.02 ± 0.033	1.02 ± 0.015	0.9819 ± 0.0095	0.979 ± 0.015	0.949 ± 0.025	0.973 ± 0.027
H2AFX (UniProt P16104)	0.925 ± 0.044	0.984 ± 0.041	0.922 ± 0.033	1.03 ± 0.047	0.997 ± 0.13	1.21 ± 0.075
UniProt P16383 and related entries	1.05 ± 0.038	1.09 ± 0.044	1.101 ± 0.0092	1.08 ± 0.03	1.07 ± 0.033	1.097 ± 0.0024
RB1 (UniProt P06400)	1 ± 0.015	0.995 ± 0.014	1 ± 0.012	0.9931 ± 0.0029	0.9901 ± 0.0085	0.981 ± 0.014
TOP1 (UniProt P11387)	1.03 ± 0.028	1.03 ± 0.045	1.1 ± 0.023	1.184 ± 0.0062	1.24 ± 0.014	1.31 ± 0.018
RPS2 (UniProt P15880)	0.954 ± 0.052	0.881 ± 0.11	0.903 ± 0.088	0.906 ± 0.059	0.876 ± 0.04	0.882 ± 0.098
HIST1H1C (UniProt P16403)	1.02 ± 0.05	1.13 ± 0.042	1.07 ± 0.023	1.17 ± 0.06	1.2 ± 0.095	1.54 ± 0.15
UniProt P10244 and related entries	1.04 ± 0.071	1.06 ± 0.031	1.04 ± 0.054	1.02 ± 0.067	0.998 ± 0.04	1.01 ± 0.029
DBT (UniProt P11182)	0.977 ± 0.14	1.01 ± 0.12	1.01 ± 0.15	0.999 ± 0.2	0.971 ± 0.14	1.03 ± 0.19
ALDOC (UniProt P09972)	1.01 ± 0.023	1.01 ± 0.018	1.01 ± 0.042	1.06 ± 0.058	1.07 ± 0.043	1.09 ± 0.035
SKI (UniProt P12755)	0.9926 ± 0.0031	0.9899 ± 0.0034	0.972 ± 0.018	0.982 ± 0.024	0.9848 ± 0.007	0.9898 ± 0.0059
BAG3 (UniProt O95817)	0.974 ± 0.032	0.987 ± 0.039	0.953 ± 0.018	0.983 ± 0.012	0.961 ± 0.044	0.934 ± 0.029
UniProt O95905 and related entries	0.9484 ± 0.0046	0.9697 ± 0.0075	0.97062 ± 3.8e-05	0.9848 ± 0.0086	0.998 ± 0.021	0.991 ± 0.029

Target	NP40-soluble protein abundance (concentration: 1mM)	NP40-soluble protein abundance (concentration: 2mM)	NP40-soluble protein abundance (concentration: 4mM)	NP40-soluble protein abundance (concentration: 6mM)	NP40-soluble protein abundance (concentration: 8mM)	NP40-soluble protein abundance (concentration: 10mM)
UniProt P04049 and related entries	1.03 ± 0.023	1.06 ± 0.037	1.07 ± 0.04	1.05 ± 0.036	1.06 ± 0.033	1.05 ± 0.032
ETFA (UniProt P13804)	0.9899 ± 0.0064	0.9816 ± 0.0097	1.002 ± 0.0035	1.05 ± 0.041	1.04 ± 0.036	1.04 ± 0.028
PARP1 (UniProt P09874)	1.06 ± 0.018	1.09 ± 0.05	1.21 ± 0.016	1.39 ± 0.027	1.51 ± 0.071	1.59 ± 0.11
UniProt P13807 and related entries	0.947 ± 0.11	0.922 ± 0.065	0.895 ± 0.096	0.867 ± 0.14	0.876 ± 0.098	0.863 ± 0.16
UniProt O95747	0.972 ± 0.014	0.963 ± 0.042	0.963 ± 0.05	0.9479 ± 0.0078	0.939 ± 0.031	0.948 ± 0.022
UniProt P09960 and related entries	0.978 ± 0.029	0.879 ± 0.098	0.925 ± 0.024	0.954 ± 0.051	0.969 ± 0.026	0.909 ± 0.04
UniProt O96020 and related entries	0.993 ± 0.024	1.01 ± 0.029	1.029 ± 0.0031	1.0336 ± 0.00011	1.01 ± 0.04	0.988 ± 0.023
ZBED1 (UniProt O96006)	1.03 ± 0.013	1 ± 0.012	0.985 ± 0.024	0.981 ± 0.016	0.962 ± 0.037	0.975 ± 0.023
HMGB1 (UniProt P09429)	1.06 ± 0.085	1.19 ± 0.16	1.06 ± 0.11	1.11 ± 0.086	1.17 ± 0.045	1.19 ± 0.067
ESD (UniProt P10768)	0.986 ± 0.03	0.942 ± 0.022	0.962 ± 0.024	0.983 ± 0.029	0.986 ± 0.015	0.93 ± 0.027
DARS (UniProt P14868)	0.954 ± 0.034	0.9 ± 0.1	0.934 ± 0.077	0.942 ± 0.061	0.954 ± 0.09	0.936 ± 0.12
TXNDC12 (UniProt O95881)	0.988 ± 0.062	1.04 ± 0.025	0.962 ± 0.099	0.937 ± 0.038	0.91 ± 0.029	0.919 ± 0.083
PRKAR1A (UniProt P10644)	1.03 ± 0.052	1.01 ± 0.043	1.01 ± 0.044	0.984 ± 0.046	0.986 ± 0.043	0.994 ± 0.059
UniProt P09497-2	0.99 ± 0.052	0.954 ± 0.082	0.904 ± 0.039	0.843 ± 0.046	0.816 ± 0.011	0.823 ± 0.05
MIF (UniProt P14174)	0.956 ± 0.052	0.939 ± 0.014	0.988 ± 0.049	1.05 ± 0.13	1.08 ± 0.098	1.07 ± 0.073
SLC2A3 (UniProt P11169)	0.976 ± 0.046	0.971 ± 0.073	0.968 ± 0.029	1.03 ± 0.028	1.01 ± 0.049	0.983 ± 0.01
UniProt P00167 and related entries	0.995 ± 0.028	0.984 ± 0.033	0.936 ± 0.036	0.992 ± 0.011	0.948 ± 0.021	0.966 ± 0.012

Whole records as entered above.
DARS (UniProt P14868) reads NP40-soluble protein abundance (concentration: 1mM): 0.954 ± 0.034; NP40-soluble protein abundance (concentration: 2mM): 0.9 ± 0.1; NP40-soluble protein abundance (concentration: 4mM): 0.934 ± 0.077; NP40-soluble protein abundance (concentration: 6mM): 0.942 ± 0.061; NP40-soluble protein abundance (concentration: 8mM): 0.954 ± 0.09; NP40-soluble protein abundance (concentration: 10mM): 0.936 ± 0.12
UniProt P09497-2 reads NP40-soluble protein abundance (concentration: 1mM): 0.99 ± 0.052; NP40-soluble protein abundance (concentration: 2mM): 0.954 ± 0.082; NP40-soluble protein abundance (concentration: 4mM): 0.904 ± 0.039; NP40-soluble protein abundance (concentration: 6mM): 0.843 ± 0.046; NP40-soluble protein abundance (concentration: 8mM): 0.816 ± 0.011; NP40-soluble protein abundance (concentration: 10mM): 0.823 ± 0.05
UniProt P13807 and related entries reads NP40-soluble protein abundance (concentration: 1mM): 0.947 ± 0.11; NP40-soluble protein abundance (concentration: 2mM): 0.922 ± 0.065; NP40-soluble protein abundance (concentration: 4mM): 0.895 ± 0.096; NP40-soluble protein abundance (concentration: 6mM): 0.867 ± 0.14; NP40-soluble protein abundance (concentration: 8mM): 0.876 ± 0.098; NP40-soluble protein abundance (concentration: 10mM): 0.863 ± 0.16
